US20100028953
For some assays here: The exact form of at least one protein or probe is not confirmed.

Amino acid sequences for entries named in this document (tags omitted). A change or cut given only in a name is not applied to a line headed by its entry.
UniProt P00970: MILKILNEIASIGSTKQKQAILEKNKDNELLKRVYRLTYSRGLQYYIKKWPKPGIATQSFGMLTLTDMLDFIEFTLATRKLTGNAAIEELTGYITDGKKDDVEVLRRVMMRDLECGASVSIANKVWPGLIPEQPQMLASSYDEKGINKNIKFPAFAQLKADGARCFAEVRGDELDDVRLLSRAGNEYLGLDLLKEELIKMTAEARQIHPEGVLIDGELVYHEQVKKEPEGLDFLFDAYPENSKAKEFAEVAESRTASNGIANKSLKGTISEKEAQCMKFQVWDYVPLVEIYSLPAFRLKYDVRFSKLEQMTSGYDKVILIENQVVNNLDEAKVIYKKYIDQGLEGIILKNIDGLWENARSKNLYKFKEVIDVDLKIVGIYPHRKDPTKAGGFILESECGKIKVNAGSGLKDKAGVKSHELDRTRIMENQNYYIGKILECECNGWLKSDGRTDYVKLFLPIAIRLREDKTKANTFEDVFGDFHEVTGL

Columns and labels:
[1] = test system: BccI restriction endonuclease; assay: enzyme reaction in vitro; conditions: NEB buffer 1, purified recombinant protein, protein details: NEB
[2] = test system: Nt.AlwI (N.Alw I) nicking endonuclease; assay: enzyme reaction in vitro; conditions: multimer nicked to monomers; purified recombinant protein; protein details: NEB buffer 2 used; folded or branched DNA
[3] = test system: MlyI restriction endonuclease; assay: enzyme reaction in vitro; conditions: 66 nt oligo released from suicide cassette; 1 U/ul, NEB buffer 4, 37 C, 16 h; purified recombinant protein; protein details: NEB buffer 4 used; folded or branched DNA
[4] = target: T4 DNA ligase (Enterobacteria phage T4) (UniProt P00970); assay: activity assay; conditions: 5'-phosphate; self-templated ligation to circle; 37 C, 30 min; purified recombinant protein; protein details: Fermentas; folded or branched DNA

Q: “CTGCCATCTTAACAAAC (double strand) [Bcc I (-)-oligo hybridized to RC product 1]” was tested. Which “activity on this sequence” value ([1]; cleavage only with (-)-oligo, none with (+)-oligo or no oligo) did it give?
A: The value was “active”.

Q: Which “activity on this sequence” value [2] does the source give for “GTCGATCCCTGCCATCTTAACAAACCCTCGACCTCAATGCTGCTGCTGTACTACTCTTATGCGATTACCGGGCTGGATCGACTCGGAATTTCTTCCGA [Rolling circle product 2 (multimer of SF86)]” here?
A: Its value is “active”.

Q: What about the “activity on this sequence” value [3] of the same sequence?
A: The value was “active”.

Q: “GTCGATCCCTGCCATCTTAACAAACCCTCGACCTCAATGCTGCTGCTGTACTACTCTTATGCGATTACCGGGCTGGATCGACTCGGAATTTCTTCCGA [SF86 (oligonucleotide with suicide cassette)]” was tested. Which “activity on this sequence” value [4] did it give?
A: The value was “active”.

Q: “GTTTGTTAAGATGGCAG (double strand) [Bcc I (+)-oligo hybridized to RC product 2]” was tested. Which “activity on this sequence” value ([1]; most prominent cleavage with (+)-oligo, background in other lanes) did it give?
A: Its value is “active”.
